Measurements reported in PubChem BioAssay AID1259425 (University of Nebraska Medical Center, 2018).
Test: 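Find knockdowns that reproduce the gene expression pattern seen when KSR1 is lost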 (primary screen). Cells: HCT116 human colon cancer cells. Knock-down reagent: siRNA pool against human genes, 50 nM siRNA. Read-out: 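After 50 nM siRNA pool, branched-DNA assay measures six marker transcripts per well, minus blank, normalised to the geometric mean of two housekeeping transcripts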. Scale: BNIP3L mRNA: higher = more BNIP3L transcript after knockdown.
The whole screen tested about 14,000 reagents; shown is a part drawn at random. Not all columns of the deposit are shown. The record does not give: the time to read-out.

With TMEM8B (transmembrane protein 8B), what was measured?
BNIP3L mRNA, set 1: 0.147

With TPH1 (tryptophan hydroxylase 1), what was measured?
BNIP3L mRNA, set 1: 0.164

With SHROOM3 (shroom family member 3), what was measured?
BNIP3L mRNA, set 1: 0.132

For MBTPS1 (membrane bound transcription factor peptidase, site 1), what does the deposit list?
BNIP3L mRNA, set 1: 0.108

With RITA1 (RBPJ interacting and tubulin associated 1), what does the deposit list?
BNIP3L mRNA, set 1: 0.176

Which result is listed for PDCD6 (programmed cell death 6)?
BNIP3L mRNA, set 1: 0.0952

With SNX5 (sorting nexin 5), what was measured?
BNIP3L mRNA, set 1: 0.11

How did the screen score TYMS (thymidylate synthetase)?
BNIP3L mRNA, set 1: 0.0827

For BRD1 (bromodomain containing 1), what does the deposit list?
BNIP3L mRNA, set 1: 0.0956

For TMEM62 (transmembrane protein 62), how do the results read?
BNIP3L mRNA, set 1: 0.106

Records listed so far whose gene name begins with T or t:
TMEM8B (transmembrane protein 8B) | BNIP3L mRNA, set 1: 0.147
TPH1 (tryptophan hydroxylase 1) | BNIP3L mRNA, set 1: 0.164
TYMS (thymidylate synthetase) | BNIP3L mRNA, set 1: 0.0827
TMEM62 (transmembrane protein 62) | BNIP3L mRNA, set 1: 0.106

Next results follow.
For KIF20A (kinesin family member 20A), what was measured?
BNIP3L mRNA, set 1: 0.0617

How did the screen score SLC25A1?
BNIP3L mRNA, set 1: 0.077

Which result is listed for COLQ?
BNIP3L mRNA, set 1: 0.114

What is on record for ALAS1 (5'-aminolevulinate synthase 1)?
BNIP3L mRNA, set 1: 0.105

How did the screen score TMIGD3 (transmembrane and immunoglobulin domain containing 3)?
BNIP3L mRNA, set 1: 0.168

For LRRC37A4P (leucine rich repeat containing 37 member A4, pseudogene), what was measured?
BNIP3L mRNA, set 1: 0.0813

What did the screen give for CYP2C9 (cytochrome P450 family 2 subfamily C member 9)?
BNIP3L mRNA, set 1: 0.0517

For IL1RAP (interleukin 1 receptor accessory protein), how do the results read?
BNIP3L mRNA, set 1: 0.0528

For EFL1 (elongation factor like GTPase 1), what was measured?
BNIP3L mRNA, set 1: 0.151
